# Results from PubChem BioAssay AID228 (DTP/NCI, 2004).
# The list does not hold the whole screen: it covers a few groups of compounds. Other doses and runs of a compound may be missing. T/C is the treated group as % of the vehicle group. Schedules are NCI's codes, read here as Q, the interval in days (D) or hours (H), X, the number of doses. Some T/C values are marked as having no survivor count here; that says nothing about deaths at the dose. Some T/C values are followed by the survivors on the day toxicity was checked; without a count or a note in brackets, all were alive then.
# Tested on: BDF1 mice, Friend leukemia sc, tumor weight T/C
# Experiment: NCI In Vivo Anticancer Drug Screen. Data for tumor model Friend Virus Leukemia (Solid) (subcutaneous) in B6D2F1 (BDF1) mice
# Details: T/C endpoint: mean tumor weight, schedule: Q01DX011 (ip), higher T/C = larger tumour
# Procedure: The antitumor activity of compounds was measured in mice bearing transplantable tumors. Survival or tumor size were measured and the results are expressed as the measurement made in the treated group (T) divided by the measurement made in the vehicle treated control group (C). The tumor model used in this assay is Friend Virus Leukemia (Solid) (subcutaneous) in B6D2F1 (BDF1) mice
# [1] = dose: 1.0 mg/kg/injection, vehicle: saline, evaluated on day 12
# [2] = dose: 2.0 mg/kg/injection, vehicle: saline, evaluated on day 12
smiles,measurement,setting,value
Cc1[nH]c(=O)[nH]c(=O)c1N(CCCl)CCCl,T/C,"dose: 0.5 mg/kg/injection, vehicle: saline, evaluated on day 12",142 % of control
same,T/C,[1],97 % of control
same,T/C,"dose: 1.5 mg/kg/injection, vehicle: saline, evaluated on day 12",69 % of control
same,T/C,[2],63 % of control
same,T/C,"dose: 3.0 mg/kg/injection, vehicle: saline, evaluated on day 12",28 % of control
OC(CNCCCl)C(O)C(O)C(O)CNCCCl (centres undefined),T/C,"dose: 2.1 mg/kg/injection, vehicle: carboxymethylcellulose (CMC), evaluated on day 12",122 % of control
same,T/C,"dose: 4.2 mg/kg/injection, vehicle: carboxymethylcellulose (CMC), evaluated on day 12",93 % of control [9 of 10 alive]
same,T/C,"dose: 8.5 mg/kg/injection, vehicle: carboxymethylcellulose (CMC), evaluated on day 12",69 % of control
same,T/C,"dose: 17.0 mg/kg/injection, vehicle: carboxymethylcellulose (CMC), evaluated on day 12",59 % of control
BrCc1cccc(CBr)c1,T/C,"dose: 1.25 mg/kg/injection, vehicle: carboxymethylcellulose (CMC), evaluated on day 12",115 % of control
same,T/C,"dose: 2.5 mg/kg/injection, vehicle: carboxymethylcellulose (CMC), evaluated on day 12",136 % of control
same,T/C,"dose: 5.0 mg/kg/injection, vehicle: carboxymethylcellulose (CMC), evaluated on day 12",109 % of control
CN(N=O)C(=N)N[N+](=O)[O-],T/C,"dose: 10.0 mg/kg/injection, vehicle: carboxymethylcellulose (CMC), evaluated on day 12",113 % of control
CCOC(=O)COc1ccc(N(CCCl)CCCl)cc1,T/C,"dose: 2.0 mg/kg/injection, vehicle: carboxymethylcellulose (CMC), evaluated on day 12",81 % of control [9 of 10 alive]
same,T/C,"dose: 4.0 mg/kg/injection, vehicle: carboxymethylcellulose (CMC), evaluated on day 12",75 % of control
same,T/C,"dose: 8.0 mg/kg/injection, vehicle: carboxymethylcellulose (CMC), evaluated on day 12",56 % of control [9 of 10 alive]
same,T/C,"dose: 16.0 mg/kg/injection, vehicle: carboxymethylcellulose (CMC), evaluated on day 12",43 % of control
O[C@H](CNCCBr)[C@@H](O)CNCCBr,T/C,[1],129 % of control
same,T/C,[2],106 % of control
same,T/C,"dose: 4.0 mg/kg/injection, vehicle: saline, evaluated on day 12",97 % of control
same,T/C,"dose: 8.0 mg/kg/injection, vehicle: saline, evaluated on day 12",56 % of control [9 of 10 alive]
N/C(=N\[N+](=O)[O-])N(CCO[N+](=O)[O-])N=O,T/C,"dose: 15.0 mg/kg/injection, vehicle: carboxymethylcellulose (CMC), evaluation day not shown",119 % of control [survivor count not shown]
same,T/C,"dose: 30.0 mg/kg/injection, vehicle: carboxymethylcellulose (CMC), evaluation day not shown",99 % of control [survivor count not shown]
same,T/C,"dose: 60.0 mg/kg/injection, vehicle: carboxymethylcellulose (CMC), evaluation day not shown",88 % of control [survivor count not shown]
